Drawing on PMC9888277, this text covers binding for two substances.

Chains of the proteins cited; added tags and fusions are not shown. Lines headed by an entry give the natural chain unless they say otherwise; changes in a name come on top. A line that says so, or that is headed by a name, gives the form on record, which may keep a tag or linker.
UniProt O15037: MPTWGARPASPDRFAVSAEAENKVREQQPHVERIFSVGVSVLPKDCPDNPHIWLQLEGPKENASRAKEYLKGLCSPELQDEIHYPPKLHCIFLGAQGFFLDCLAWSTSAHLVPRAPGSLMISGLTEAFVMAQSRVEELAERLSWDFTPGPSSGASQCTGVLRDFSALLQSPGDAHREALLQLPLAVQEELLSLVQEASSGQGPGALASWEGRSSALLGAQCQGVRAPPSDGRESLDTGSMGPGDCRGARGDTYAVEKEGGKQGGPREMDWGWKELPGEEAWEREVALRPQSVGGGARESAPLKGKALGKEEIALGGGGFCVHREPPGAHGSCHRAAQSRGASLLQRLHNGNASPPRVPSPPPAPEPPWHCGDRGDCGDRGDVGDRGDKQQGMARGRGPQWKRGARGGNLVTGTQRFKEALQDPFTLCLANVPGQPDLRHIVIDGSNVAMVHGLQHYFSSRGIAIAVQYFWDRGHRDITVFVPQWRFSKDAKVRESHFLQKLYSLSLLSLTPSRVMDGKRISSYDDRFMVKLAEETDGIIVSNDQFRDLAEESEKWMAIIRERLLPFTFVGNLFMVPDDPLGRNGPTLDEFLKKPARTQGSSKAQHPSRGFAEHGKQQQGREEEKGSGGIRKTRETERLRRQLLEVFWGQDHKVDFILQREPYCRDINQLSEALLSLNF
ZAP-S (zinc finger antiviral protein, short isoform) (Q7Z2W4-2, form named): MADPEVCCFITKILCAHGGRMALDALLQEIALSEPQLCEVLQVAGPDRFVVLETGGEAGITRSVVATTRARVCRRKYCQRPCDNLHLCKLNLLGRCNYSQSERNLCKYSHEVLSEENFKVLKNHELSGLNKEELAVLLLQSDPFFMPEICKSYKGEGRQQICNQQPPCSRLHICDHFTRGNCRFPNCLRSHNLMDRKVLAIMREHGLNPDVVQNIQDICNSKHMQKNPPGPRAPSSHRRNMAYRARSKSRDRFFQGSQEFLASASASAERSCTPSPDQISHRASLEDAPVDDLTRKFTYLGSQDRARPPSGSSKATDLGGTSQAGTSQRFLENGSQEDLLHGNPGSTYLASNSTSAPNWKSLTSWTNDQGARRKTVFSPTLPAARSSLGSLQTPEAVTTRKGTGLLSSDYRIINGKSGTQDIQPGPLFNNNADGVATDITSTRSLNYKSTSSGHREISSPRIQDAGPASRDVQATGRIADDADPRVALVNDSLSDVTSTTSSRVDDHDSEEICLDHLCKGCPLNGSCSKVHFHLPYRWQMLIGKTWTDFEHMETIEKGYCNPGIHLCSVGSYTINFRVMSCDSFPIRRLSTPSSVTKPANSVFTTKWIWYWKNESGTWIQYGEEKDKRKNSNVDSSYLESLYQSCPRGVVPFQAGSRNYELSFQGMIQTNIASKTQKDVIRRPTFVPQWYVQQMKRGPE

This assay deals with wild-type KHNYN-GFP (human) (UniProt O15037). The experiment in a line: co-IP; anti-GFP antibody and Protein G Dynabeads on post-nuclear lysates of HeLa cells stably expressing KHNYN-GFP or mutants; lysis in 0.5% NP-40, 150 mM KCl, 10 mM HEPES pH 7.5, 3 mM MgCl2; 4°C; blotted for GFP and endogenous ZAP; the paper notes that the interaction could occur post-lysis.

These are yes or no findings as the source states them, for the method shown. Binding seen in cells or lysates may run through a third protein. Some entries that bind do so weakly or less than the wild type.

“ZAP-S (zinc finger antiviral protein, short isoform) (from UniProt Q7Z2W4-2 1-699)”: the binding result was “binds weakly”.
Next, “ZAP-L (zinc finger antiviral protein, long isoform) (from UniProt Q7Z2W4-1 1-902)”: “binds”.
